From patent publication US10912815B2, “Inhibitors of mitochondrial fission and methods of use thereof” (The Board of Trustees of the Leland Stanford Junior …, priority 2011, dated 2021)
Part of at least one peptide drawing is inferred or uncertain, most often the ends. Residues, ends and D or L forms follow the SMILES beside them.

Key:
SH-SY5Y cells [1] = assay: Mitochondrial morphology/fragmentation in SH-SY5Y cells (TOM20 staining); assay type: cell-based, human; settings: no stressor
Description: To determine effects of P110 on mitochondrial morphology in response to mitochondrial stresses, an immuno-staining approach was used. In one experiment, SH-SY5Y neuronal cells were treated with Drp1 peptides or Drp1 siRNA followed by treatment of MPP+. The cells were then stained with TOM20 and Hoechst stain.
In another experiment, cultured SH-SY5Y cells were treated with P110 (1 μM) for 30 min followed by incubation with MPP+(2 mM, 4 hrs) or CCCP (5 uM, 30 min). The cells were then stained with anti-Tom 20 antibody (green) and Hoechst stain (scale bar 0.5 μm). Mitochondrial morphology was analyzed using 63× oil lens. The data were analyzed and are presented as a histogram in which the percentage of cells with fragmented mitochondria relative to the total number of cells is presented as the mean±S.E. of 3 independent experiments. At least 200 cells per group were counted.

SH-SY5Y cells [2] = settings: peptides 0.5 μM 15 min, MPP+ 1 mM for 24 hrs, n=7-8, FIG. 9F
OPA1 = target: T1, OPA1 (Homo sapiens, UniProt O60313); assay: In vitro GTPase assay, recombinant OPA1; assay type: biochemical; settings: recombinant OPA1 25 ng, FIG. 2B
T1 sequence (O60313 88-960): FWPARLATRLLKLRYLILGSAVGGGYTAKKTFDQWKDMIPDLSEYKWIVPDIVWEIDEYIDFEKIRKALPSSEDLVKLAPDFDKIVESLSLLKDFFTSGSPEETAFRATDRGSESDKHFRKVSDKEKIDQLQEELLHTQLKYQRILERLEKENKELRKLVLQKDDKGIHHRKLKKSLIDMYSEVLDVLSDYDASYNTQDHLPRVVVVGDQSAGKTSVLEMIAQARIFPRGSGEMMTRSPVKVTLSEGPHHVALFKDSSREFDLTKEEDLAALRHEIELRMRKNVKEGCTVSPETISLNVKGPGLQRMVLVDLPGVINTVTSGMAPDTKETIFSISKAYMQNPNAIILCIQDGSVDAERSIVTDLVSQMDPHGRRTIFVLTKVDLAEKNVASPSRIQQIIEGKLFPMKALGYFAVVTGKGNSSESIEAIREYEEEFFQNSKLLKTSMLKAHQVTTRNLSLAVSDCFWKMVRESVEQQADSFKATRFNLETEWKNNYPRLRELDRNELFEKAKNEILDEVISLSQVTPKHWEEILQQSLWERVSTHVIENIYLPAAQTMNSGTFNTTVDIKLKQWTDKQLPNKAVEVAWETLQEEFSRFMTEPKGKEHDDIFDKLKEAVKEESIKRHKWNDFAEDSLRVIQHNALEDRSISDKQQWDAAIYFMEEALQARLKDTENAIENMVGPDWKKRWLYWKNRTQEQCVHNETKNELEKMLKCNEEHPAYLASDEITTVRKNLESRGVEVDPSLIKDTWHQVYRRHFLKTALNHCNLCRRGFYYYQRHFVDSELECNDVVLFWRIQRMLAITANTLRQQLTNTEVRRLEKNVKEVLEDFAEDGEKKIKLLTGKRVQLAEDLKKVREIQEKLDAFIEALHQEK
Description: (§1) First, mitochondrial fission inhibitor constructs were tested to determine what, if any, effects each peptide had on enzyme (GTPase) activity. Recombinant protein Drp1, Mfn1, OPA1 or dynamin-1 (25 ng) was incubated with the indicated modulator peptides for 30 min. GTPase activity was assayed in vitro using a GTPase assay kit (Innova Biosciences, Littleton, USA, or Novus Biologicals, Littleton, Colo.) according to manufacturer's instructions.

Mfn1 = target: T2, Mfn1 (Homo sapiens, UniProt Q8IWA4); assay: In vitro GTPase assay, recombinant Mfn1; assay type: biochemical; settings: recombinant Mfn1 25 ng, FIG. 2B
T2 sequence (Q8IWA4 1-741): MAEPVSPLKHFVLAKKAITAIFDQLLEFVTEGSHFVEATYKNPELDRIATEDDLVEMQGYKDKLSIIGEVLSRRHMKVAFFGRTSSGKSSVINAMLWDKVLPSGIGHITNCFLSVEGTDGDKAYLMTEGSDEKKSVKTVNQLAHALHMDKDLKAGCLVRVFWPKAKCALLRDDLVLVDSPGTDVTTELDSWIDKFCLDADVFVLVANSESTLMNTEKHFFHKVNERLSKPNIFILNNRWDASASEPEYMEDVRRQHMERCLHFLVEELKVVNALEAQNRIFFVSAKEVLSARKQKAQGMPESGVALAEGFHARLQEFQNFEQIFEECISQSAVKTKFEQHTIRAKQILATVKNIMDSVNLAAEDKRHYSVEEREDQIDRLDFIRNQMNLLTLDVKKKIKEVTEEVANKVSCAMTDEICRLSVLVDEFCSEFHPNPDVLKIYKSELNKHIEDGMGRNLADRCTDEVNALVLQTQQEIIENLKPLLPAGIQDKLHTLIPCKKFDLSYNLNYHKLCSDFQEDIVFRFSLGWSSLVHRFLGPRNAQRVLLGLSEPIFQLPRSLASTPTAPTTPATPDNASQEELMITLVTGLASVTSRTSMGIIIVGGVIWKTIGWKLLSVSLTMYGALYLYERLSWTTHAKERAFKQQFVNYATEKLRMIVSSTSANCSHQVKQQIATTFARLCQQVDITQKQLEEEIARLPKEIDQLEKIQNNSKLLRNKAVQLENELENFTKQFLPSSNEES
Description: as §1

SMILES | mitochondrial morphology/network in control (non-stressed) cells (SH-SY5Y cells [1]) | mitochondrial damage and neuronal cell death (MTT) (SH-SY5Y cells [2]) | effect on GTPase activity of OPA1 (OPA1) | effect on GTPase activity of Mfn1 (mitofusin 1) (Mfn1)
CC(C)C[C@H](NC(=O)[C@H](CCCCN)NC(=O)CNC(=O)CNC(=O)[C@H](Cc1ccc(O)cc1)NC(=O)CNC(=O)[C@H](CCCNC(=N)N)NC(=O)[C@H](CCCCN)NC(=O)[C@H](CCCCN)NC(=O)[C@H](CCCNC(=N)N)NC(=O)[C@H](CCCNC(=N)N)NC(=O)[C@H](CCC(N)=O)NC(=O)[C@H](CCCNC(=N)N)NC(=O)[C@H](CCCNC(=N)N)NC(=O)[C@@H](N)CCCNC(=N)N)C(=O)N[C@@H](CO)C(=O)N[C@@H](C)C(=O)N[C@@H](CCCNC(=N)N)C(=O)N[C@@H](CCC(=O)O)C(=O)N[C@@H](CCC(N)=O)C(=O)N[C@@H](CCCNC(=N)N)C(=O)N[C@@H](CC(=O)O)C(N)=O [P109] (H-RRRQRRKKRGYGGKLSAREQRD-NH2) | no effect | reduced mitochondrial damage and neuronal cell death |  | 
N=C(N)NCCC[C@H](NC(=O)[C@H](CCCCN)NC(=O)[C@H](CCCCN)NC(=O)[C@H](CCCNC(=N)N)NC(=O)[C@H](CCCNC(=N)N)NC(=O)[C@H](CCC(N)=O)NC(=O)[C@H](CCCNC(=N)N)NC(=O)[C@H](CCCNC(=N)N)NC(=O)[C@@H](N)CCCNC(=N)N)C(=O)NCC(=O)N[C@@H](Cc1ccc(O)cc1)C(=O)NCC(=O)NCC(=O)N[C@@H](CCCCN)C(=O)NCC(=O)N[C@@H](CO)C(=O)N[C@@H](CCCCN)C(=O)N[C@@H](CCC(=O)O)C(=O)N[C@@H](CCC(=O)O)C(=O)N[C@@H](CCC(N)=O)C(=O)N[C@@H](CCCNC(=N)N)C(=O)N[C@@H](CC(=O)O)C(N)=O [P112] (H-RRRQRRKKRGYGGKGSKEEQRD-NH2) |  | reduced mitochondrial damage and neuronal cell death | no effects | no effects
